Assay results reported in the supplement of paper PMC7024190.
Counter-ions that a name gives are not always drawn. The list shows a part of the results. Single values are uncertain here, since repeats match poorly.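 The cells were human embryonic kidney cells carrying a Renilla luciferase gene, driven by the HSV-TK promoter, on a plasmid put in briefly by transfection. This is the first-round screen of about ten thousand compounds, looking for ones that raise reporter output.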

test system: HEK 293FT; assay: log relative Renilla luciferase luminescence (reporter expression vs reference, reference not stated) (log (base not stated)); higher = higher recombinant reporter expression; conditions: 10 µM; time after transfection 48 h

Row | Compound | log
1 | COc1cc(-c2ccc(=O)[nH]n2)ccc1OC(F)F [Zardaverine] | -0.213
2 | CCCCC1(COC(=O)CCC(=O)O)C(=O)N(c2ccccc2)N(c2ccccc2)C1=O [Suxibuzone] | 0.0878
3 | COc1cc(NC(C)CCCN)c2ncccc2c1 (stereo unspecified) [Primaquine diphosphate] | -0.199
4 | CCCCNc1c(C(=O)OCC)c(C)nc2c1cnn2CC [Tracazolate hydrochloride] | 0.157
5 | CC(C)(C)c1ccc(C(O)CCCN2CCC(C(O)(c3ccccc3)c3ccccc3)CC2)cc1 (stereo unspecified) [Terfenadine] | 0.0422
6 | CC(COc1ccccc1)NC(C)C(O)c1ccc(O)cc1 (stereo unspecified) [Isoxsuprine hydrochloride] | -0.0196
7 | CCCCN1CCCCC1C(=O)Nc1c(C)cccc1C (stereo unspecified) [Bupivacaine hydrochloride] | 0.0303
8 | CCOC(=O)NNc1nncc2ccccc12 [Todralazine hydrochloride] | -0.58
9 | CCN(CCO)CCCC(C)Nc1ccnc2cc(Cl)ccc12 (stereo unspecified) [Hydroxychloroquine sulfate] | -0.375
10 | COc1ccc(CC2c3cc(OC)c(OC)cc3CC[N+]2(C)CCC(=O)OCCCCCOC(=O)CC[N+]2(C)CCc3cc(OC)c(OC)cc3C2Cc2ccc(OC)c(OC)c2)cc1OC (stereo unspecified) [Atracurium besylate] | -0.063
11 | CC(=O)[C@H]1CC[C@H]2[C@@H]3CC=C4C[C@@H](O)CC[C@]4(C)[C@H]3CC[C@]12C [Pregnenolone] | 0.0914
12 | CN(C)CCCN1c2ccccc2Sc2ccc(Cl)cc21 [Chlorpromazine hydrochloride] | 0.0324
13 | CCOc1ccccc1OC(c1ccccc1)C1CNCCO1 (stereo unspecified) [Reboxetine mesylate] | 0.0079
14 | Nc1ccc(S(=O)(=O)Nc2ccccn2)cc1 [Sulfapyridine] | -0.0623
15 | Nc1ccn([C@@H]2O[C@H](CO)[C@@H](O)[C@@H]2O)c(=O)n1 [Cytarabine] | -0.399
16 | CN(C)C(=N)NC(=N)N [Metformin hydrochloride] | 0.0444
17 | NCCCCCC(=O)O [Aminocaproic acid] | 0.0695
18 | CNCCc1ccccn1 [Betahistine mesylate] | 0.0842
19 | CC=CC(=O)N(CC)c1ccccc1C [Crotamiton] | -0.0456
20 | Nc1nc2c(ncn2COC(CO)CO)c(=O)[nH]1 [Ganciclovir] | -0.156
21 | Clc1cccc(Cl)c1NC1=NCCN1 [Clonidine hydrochloride] | 0.109
22 | CO[C@H]1/C=C/O[C@@]2(C)Oc3c(C)c(O)c4c(O)c(c5c(nc6cc(C)ccn65)c4c3C2=O)NC(=O)/C(C)=C\C=C\[C@H](C)[C@H](O)[C@@H](C)[C@@H](O)[C@@H](C)[C@H](OC(C)=O)[C@@H]1C [Rifaximin] | -1.34
23 | CCN(CC)C(C)CN1c2ccccc2Sc2ccccc21 (stereo unspecified) [Ethopropazine hydrochloride] | 0.1
24 | CCCNC(=O)NS(=O)(=O)c1ccc(Cl)cc1 [Chlorpropamide] | -0.137
25 | CC(=O)O[C@]1(C(C)=O)CC[C@H]2[C@@H]3C=C(Cl)C4=CC(=O)CC[C@]4(C)[C@H]3CC[C@@]21C [Chlormadinone acetate] | -0.00154
26 | CN(C)CCOC(c1ccccc1)c1ccccc1.Cn1c(=O)c2[nH]c(Cl)nc2n(C)c1=O [Dimenhydrinate] | 0.145

Row | Compound | log
27 | O=C1NCC2(CCN(CCc3ccccc3)CC2)O1 [Fenspiride hydrochloride] | 0.0683
28 | Clc1ccc2c(c1)CCc1cccnc1C2=C1CCNCC1 [Desloratadine] | -0.0173
29 | CCCOc1ccc2[nH]c(NC(=O)OC)nc2c1 [Oxibendazol] | -0.153
30 | O=C(c1ccc(F)cc1)C1CCN(CCn2c(=O)[nH]c3ccccc3c2=O)CC1 [Ketanserin tartrate hydrate] | 0.0285
31 | CCN(CC)C(=O)c1ccc(O)c(OC)c1 [Ethamivan] | -0.0265
32 | c1ccc(-c2ccc(C(c3ccccc3)n3ccnc3)cc2)cc1 (stereo unspecified) [Bifonazole] | -0.415
33 | Oc1c(Cl)cc(Cl)c2cccnc12 [Chloroxine] | 0.0175
34 | CN(C)CCC(c1ccc(Br)cc1)c1ccccn1 (stereo unspecified) [Brompheniramine maleate] | 0.000654
35 | CC(=O)OC[C@H]1O[C@@H]([S-])[C@H](OC(C)=O)[C@@H](OC(C)=O)[C@@H]1OC(C)=O.CCP(CC)CC.[Au+] [Auranofin] | -1.4
36 | CCC1(c2ccccc2)C(=O)NCNC1=O [Primidone] | 0.0842
37 | Nc1ncnc2c1ncn2[C@@H]1O[C@H](CO)[C@@H](O)[C@@H]1O [Vidarabine] | -0.0706
38 | C[C@@](Cc1ccc(O)c(O)c1)(NN)C(=O)O [Carbidopa] | -0.0258
39 | CCOc1nc2cccc(C(=O)O)c2n1Cc1ccc(-c2ccccc2-c2nnn[nH]2)cc1 [Candesartan] | 0.0115
40 | Cn1c(=O)c2c(ncn2CC2OCCO2)n(C)c1=O [Doxofylline] | 0.0878
41 | CN1CCN(CC(=O)N2c3ccccc3C(=O)Nc3cccnc32)CC1 [Pirenzepine dihydrochloride] | 0.0753
42 | COC(=O)Nc1nc2cc(Sc3ccccc3)ccc2[nH]1 [Fenbendazole] | 0.113
43 | CC(=O)N(CC(O)CO)c1c(I)c(C(=O)NCC(O)CO)c(I)c(C(=O)NCC(O)CO)c1I (stereo unspecified) [Iohexol] | -0.00821
44 | CN(CCCCCCCCCCN(C)C(=O)Oc1cccc([N+](C)(C)C)c1)C(=O)Oc1cccc([N+](C)(C)C)c1 [Demecarium bromide] | 0.0511
45 | CC(CNC1CCCCC1)OC(=O)c1ccccc1 (stereo unspecified) [Hexylcaine hydrochloride] | -0.0934
46 | Nc1ccc(S(=O)(=O)Nc2nccs2)cc1 [Sulfathiazole] | -0.0105
47 | Cc1ccc(-c2cc(C(F)(F)F)nn2-c2ccc(S(N)(=O)=O)cc2)cc1 [Celecoxib] | -0.995
48 | CC[C@H]1OC(=O)[C@H](C)[C@@H](O[C@H]2C[C@@](C)(OC)[C@@H](O)[C@H](C)O2)[C@H](C)[C@@H](O[C@@H]2O[C@H](C)C[C@H](N(C)C)[C@H]2O)[C@](C)(O)C[C@@H](C)CN(C)[C@H](C)[C@@H](O)[C@]1(C)O [Azithromycin] | 0.131
49 | C[C@@H]1CCC[C@H](C)N1NC(=O)c1ccc(Cl)c(S(N)(=O)=O)c1 [Clopamide] | 0.0849
50 | CN[C@H]1CC[C@@H](c2ccc(Cl)c(Cl)c2)c2ccccc21 [Sertraline] | -0.0605
51 | CCN(CC)CCNC(=O)c1ccc(N)cc1 [Procainamide hydrochloride] | -0.0103
52 | CC(=O)Nc1c(I)c(C(=O)N[C@H]2C(O)O[C@H](CO)[C@@H](O)[C@@H]2O)c(I)c(N(C)C(C)=O)c1I (stereo partly specified) [Metrizamide] | -0.0173

Entries from the list above containing fluorine:
Row | Compound | log
1 | COc1cc(-c2ccc(=O)[nH]n2)ccc1OC(F)F [Zardaverine] | -0.213
30 | O=C(c1ccc(F)cc1)C1CCN(CCn2c(=O)[nH]c3ccccc3c2=O)CC1 [Ketanserin tartrate hydrate] | 0.0285
47 | Cc1ccc(-c2cc(C(F)(F)F)nn2-c2ccc(S(N)(=O)=O)cc2)cc1 [Celecoxib] | -0.995

Additional records follow.

Row | Compound | log
53 | CCOC1O[C@H]([C@@H](COCc2ccccc2)OCc2ccccc2)[C@H](OCc2ccccc2)[C@H]1O (stereo partly specified) [Tribenoside] | -0.819
54 | CNCC(O)c1ccc(O)c(O)c1 (stereo unspecified) [Racepinephrine HCl] | 0.251
55 | Cc1cc2cc3c(C)cc(=O)oc3c(C)c2o1 [Trioxsalen] | -0.00375
56 | CC(=O)Nc1nnc(S(N)(=O)=O)s1 [Acetazolamide] | -0.0288
57 | Clc1ccc2nsnc2c1NC1=NCCN1 [Tizanidine HCl] | -0.0275
58 | CCCCOc1cc(C(=O)OCCN(CC)CC)ccc1N [Benoxinate hydrochloride] | 0.0638
59 | C[C@]12CC[C@@H]3c4ccc(O)cc4C[C@@H](CCCCCCCCC[S+]([O-])CCCC(F)(F)C(F)(F)F)[C@H]3[C@@H]1CC[C@@H]2O (stereo partly specified) [Fulvestrant] | 0.0127
60 | CO/N=C(\C(=O)N[C@@H]1C(=O)N2C(C(=O)O)=C(COC(C)=O)CS[C@H]12)c1csc(N)n1 [Cefotaxime sodium salt] | 0.129
61 | CN1CCN2c3ncccc3Cc3ccccc3C2C1 (stereo unspecified) [Mirtazapine] | 0.114
62 | CC(C)[C@H](N)C(=O)OCCOCn1cnc2c(=O)nc(N)[nH]c21 [Valacyclovir hydrochloride] | 0.0241
63 | CC1(C)O[C@@H]2C[C@H]3[C@@H]4C[C@H](F)C5=CC(=O)C=C[C@]5(C)[C@@]4(F)[C@@H](O)C[C@]3(C)[C@]2(C(=O)CO)O1 [Fluocinolone acetonide] | 0.0824
64 | COc1cc(NS(=O)(=O)c2ccc(N)cc2)ncn1 [Sulfamonomethoxine] | -0.238
65 | Cc1cc(C)nc(NS(=O)(=O)c2ccc(N)cc2)n1 [Sulfamethazine sodium salt] | 0.0449
66 | CN(C(=O)CN(CCO)CC(=O)N(C)C(C)(C)Cc1ccccc1)C(C)(C)Cc1ccccc1 [Oxethazaine] | -0.1
67 | COC(=O)N/N=C/c1c[n+]([O-])c2ccccc2[n+]1[O-] [Carbadox] | -0.00526
68 | CC(C(O)c1ccc(O)cc1)N1CCC(Cc2ccccc2)CC1 (stereo unspecified) [Ifenprodil tartrate] | 0.127
69 | COc1ccc(Cl)cc1C(=O)NCCc1ccc(S(=O)(=O)NC(=O)NC2CCCCC2)cc1 [Glibenclamide] | 0.177
70 | CC#C[C@]1(O)CC[C@H]2[C@@H]3CCC4=CC(=O)CCC4=C3[C@@H](c3ccc(N(C)C)cc3)C[C@@]21C [Mifepristone] | 0.0967
71 | CCCOc1ccccc1-c1nc2[nH]nnc2c(=O)[nH]1 [Zaprinast] | 0.0943
72 | CCCCC1C(=O)N(c2ccccc2)N(c2ccc(O)cc2)C1=O (stereo unspecified) [Oxyphenbutazone] | 0.128
73 | N[C@H]1CONC1=O [(S)-(-)-Cycloserine] | 0.131
74 | CCN(CC)C(=O)Nc1ccc(OCC(O)CNC(C)(C)C)c(C(C)=O)c1 (stereo unspecified) [Celiprolol HCl] | -0.0311
75 | COc1cc2nc(N3CCN(C(=O)C4COc5ccccc5O4)CC3)nc(N)c2cc1OC (stereo unspecified) [Doxazosin mesylate] | -0.0393
76 | Cc1cc(C(C)(C)C)cc(C)c1CC1=NCCN1 [Xylometazoline hydrochloride] | 0.131
